For the experiment, the target named is human autotaxin (Homo sapiens, UniProt Q13822). The experiment in a line: Human Autotaxin Assay (choline release from LPC). The note with it: ATX in concentrated conditioned media from Hep3B cells, substrate LPC 14:0 100 uM, absorbance at 555 nm. The protocol: ATX activity is assayed in concentrated conditioned media from Hep3B human hepatocellular carcinoma cells by measuring the amount of choline released from the substrate, lysophosphatidylcholine (LPC) as it is cleaved to LPA. Conditioned media is collected from confluent Hep3B cells and concentrated 20-fold using Centriprep-30 filter devices (Millipore). To assay for autotaxin inhibition, 10-20 μL of the concentrated conditioned media is incubated with 2.5 μL of a test compound in DMSO and 72.5-82.5 μL lyso-PLD buffer (100 mM Tris pH 9, 500 mM NaCl, 5 mM MgCl2, 5 mM CaCl2, 0.05% Triton X-100 in the presence or absence of 0.2% fatty-acid-free human serum albumin) for 15 min at 37° C. After the 15 min incubation, 5 ul of 2 mM LPC (14:0; Avanti Polar Lipids Cat#855575C) diluted in lyso-PLD buffer is added for a final concentration of 100 uM and the incubation continues for 1.5-3 hours at 37° C. 100 μl of a color mix containing 4.5 mM 4-aminoantipyrine, 2.7 mM N-ethyl-N-(2-hydroxy-3-sulfopropyl)-m-toluidine, 21 units/ml horseradish peroxidase and 3 units/ml choline oxidase in 50 mM Tris, pH 8, 4.5 mM MgCl2 is added and the incubation continued for 15 minutes at room temperature before reading the absorbance at 555 nm.

Among the data in patent US9714240B2 (PharmAkea, Inc., priority 2013, dated 2017) are IC50 values, retold here.

The structures appear in SMILES notation. The match of structure and compound is tentative. A value given as a limit tells only on which side of the number the result lay.

As usually defined, the IC50 is the concentration that gives 50% inhibition. High values mean a need for much substance, low ones inhibition by little substance.

Turning to `Cc1c(/C=C(\C#N)c2ccc(C(=O)O)cc2)c2ccccc2n1Cc1ccccc1F`, the IC50 is more than 10 µM.
